Results are given in words; binding and its absence hold for the method and conditions named. Some results given as binding are weak or reduced against the parent protein; the word gives no strength.
Key:
histidine-tagged Cbfβ [1] = biological target: histidine-tagged Cbfβ (UniProt Q08024); test: EMSA with labeled OSE2 oligonucleotide, with Cbfβ (FIG. 18A)
histidine-tagged Cbfβ [2] = biological target: histidine-tagged Cbfβ (UniProt Q08024); test: EMSA (DNA-binding assays)
histidine-tagged Cbfβ [3] = biological target: histidine-tagged Cbfβ (UniProt Q08024); test: EMSA with labeled OSE2 oligonucleotide, supershift on addition of Cbfβ
[4] = biological target: glutathione-S-transferase (GST)-Cbfβ fusion protein [GST: P08515]; test: in vitro binding assay, GST-Cbfβ on glutathione-agarose beads, SDS-PAGE and autoradiography

Chains of the proteins cited; added tags and fusions are not shown. Lines headed by an entry give the natural chain unless they say otherwise; changes in a name come on top. A line that says so, or that is headed by a name, gives the form on record, which may keep a tag or linker.
histidine-tagged Cbfβ (Q08024, form named): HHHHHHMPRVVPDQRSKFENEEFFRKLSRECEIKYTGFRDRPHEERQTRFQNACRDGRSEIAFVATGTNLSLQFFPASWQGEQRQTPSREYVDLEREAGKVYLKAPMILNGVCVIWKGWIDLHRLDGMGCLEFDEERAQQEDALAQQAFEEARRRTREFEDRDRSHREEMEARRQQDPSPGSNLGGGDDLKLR
UniProt Q03347: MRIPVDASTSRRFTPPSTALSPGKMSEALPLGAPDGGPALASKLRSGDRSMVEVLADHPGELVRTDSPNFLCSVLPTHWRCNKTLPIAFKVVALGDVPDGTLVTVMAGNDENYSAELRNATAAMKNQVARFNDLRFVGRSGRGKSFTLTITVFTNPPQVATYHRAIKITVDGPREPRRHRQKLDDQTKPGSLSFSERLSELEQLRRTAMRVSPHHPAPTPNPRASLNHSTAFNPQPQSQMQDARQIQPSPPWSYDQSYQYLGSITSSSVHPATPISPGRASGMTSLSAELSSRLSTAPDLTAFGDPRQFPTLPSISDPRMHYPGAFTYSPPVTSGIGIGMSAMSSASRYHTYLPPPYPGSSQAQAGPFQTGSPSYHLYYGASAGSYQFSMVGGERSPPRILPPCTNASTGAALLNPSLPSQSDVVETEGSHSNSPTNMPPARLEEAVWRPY
UniProt Q08775: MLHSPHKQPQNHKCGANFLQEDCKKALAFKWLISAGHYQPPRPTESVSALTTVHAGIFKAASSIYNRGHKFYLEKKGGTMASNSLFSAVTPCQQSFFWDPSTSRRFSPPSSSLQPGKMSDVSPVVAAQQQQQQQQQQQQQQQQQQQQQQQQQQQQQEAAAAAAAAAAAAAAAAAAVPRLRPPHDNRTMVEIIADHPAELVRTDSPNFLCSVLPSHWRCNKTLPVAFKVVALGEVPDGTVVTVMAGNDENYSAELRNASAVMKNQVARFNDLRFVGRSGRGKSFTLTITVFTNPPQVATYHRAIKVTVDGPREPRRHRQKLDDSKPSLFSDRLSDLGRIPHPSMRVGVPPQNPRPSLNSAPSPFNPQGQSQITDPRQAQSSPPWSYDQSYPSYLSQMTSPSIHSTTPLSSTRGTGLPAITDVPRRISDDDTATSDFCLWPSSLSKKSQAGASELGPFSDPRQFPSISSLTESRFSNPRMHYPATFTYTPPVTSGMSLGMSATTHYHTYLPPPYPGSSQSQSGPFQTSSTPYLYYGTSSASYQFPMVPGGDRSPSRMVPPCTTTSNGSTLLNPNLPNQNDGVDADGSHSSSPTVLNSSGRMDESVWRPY

binding (histidine-tagged Cbfβ [1]) | binding (histidine-tagged Cbfβ [2]) | binding (histidine-tagged Cbfβ [3]) | binding [4] | Substance
binds | binds | binds | – | His-Cbfa2 protein (from UniProt Q03347 1-451)
– | – | – | binds | in vitro translated ^35S-labeled Cbfa2 (from UniProt Q03347 1-451)
binds | – | binds | – | Δ.runt.PST deletion mutant containing only the runt and PST domains of Osf2 (His-tagged) (from UniProt Q08775 188-607)
